The values below come from PubChem BioAssay AID687028 (Broad Institute, 2013).

Molecules are shown by their SMILES. Only a part is listed here, and it is no random draw. Measured potencies and affinities stand elsewhere. Activity calls are given as the source filed them. How the calls were made is not given here.

The assay is described as follows: A549 cell toxicity, dose response, cytotoxicity control, plate reader, cherry-pick samples (AID 687028).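 Further: cells incubated with compound for three days before reading.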 Conditions: at 19.5 µM (top of the series).
As to `CCCCCCCCc1ccc(O)cc1`, the activity change, negative = toxicity is inactive: 3.26%.
